Measurements taken from patent US20250082624A1, “METHODS OF TREATING COGNITIVE IMPAIRMENT” (NeuroTherapia, Inc., priority 2023, published 2025).
Where “and” joins values, the source holds several entries; their conditions need not be identical. Equal values may be shown once. Further values from the same series stand in other lists.

Assay: Phase 1b MAD plasma pharmacokinetics, non-compartmental analysis
Assay type: in vivo, human
Text: Methods: All study procedures were approved by the IRB, and informed consent was obtained. Three cohorts of volunteers 45-80 years of age with well-controlled comorbidities (NOAD) and one cohort of AD patients diagnosed with cognitive impairment consistent with prodromal AD per International Working Group criteria or mild AD per National Institute on Aging—Alzheimer's Association criteria (n=6 active, 2 placebo per cohort) were enrolled. Participants were admitted to the study site for the duration of the dosing and returned 7-12 days after the last dose for a safety visit. Participants received NTRX-07 (10, 30, or 90 mg) or a placebo in a double-blinded randomization orally once daily for seven days. Subjects were assessed for changes in vital signs, including maneuvers to induce lightheadedness, electrocardiograms, 24-hour electroencephalograms (EEG), and safety laboratory studies. The second cohort returned and received a single repeat dose after a standard high-fat meal. The AD cohort also underwent cognitive testing and had blood samples for biomarkers drawn. Subjects had PK sampling done after the first and final dose of the study drug. An independent safety review committee conducted a blinded safety review of adverse events and plasma levels between each cohort.
All subjects had PK sampling done after the first and final dose of the study drug.
(§1) Raw bioanalytical data were received from Nuvisan following analysis of plasma samples from each of four cohorts. PK parameters were calculated by noncompartmental analysis using standard equations. Specifically, area under the plasma concentration versus time curve (AUC) was calculated using the trapezoid rule. Maximal plasma concentration (Cmax) and time of maximal plasma concentration (Tmax) were taken directly from the data. Clearance divided by bioavailability (Cl/F) was calculated as the dose divided by the AUC. Apparent volume of distribution over bioavailability (Vd/F) was calculated as dose divided by Cmax.
With oral administration of the dose every 24 hours for 7 days, blood samples were taken over a 24-hour interval on Days 1 and 7 and before and after dosing on Day 3.
as §1, with “on Oct. 27, 2022. […]” for “following analysis of plasma samples from each of four cohorts. PK parameters were calculated by noncompartmental analysis using standard equations.”
as §1, with “on Nov. 24, 2022. […]” for “following analysis of plasma samples from each of four cohorts. PK parameters were calculated by noncompartmental analysis using standard equations.”
as §1, with “on Dec. 19, 2022. […]” for “following analysis of plasma samples from each of four cohorts. PK parameters were calculated by noncompartmental analysis using standard equations.”
Raw bioanalytical data were received from Nuvisan on Jun. 30, 2023. […] Specifically, area under the plasma concentration versus time curve (AUC) was calculated using the trapezoid rule. Maximal plasma concentration (Cmax) and time of maximal plasma concentration (Tmax) were taken directly from the data. […]

[1] = Table 25 (interim): Cohort B, 120 mg SDD (30 mg NTRX-07) QD oral, Day 7, individual subjects
[2] = Table 29 (interim): Cohort C, 360 mg SDD (90 mg NTRX-07) QD oral, Day 1, individual subjects
[3] = Table 30 (interim): Cohort C, 360 mg SDD (90 mg NTRX-07) QD oral, Day 7, individual subjects
[4] = Table 34 (interim): Cohort D (AD), 360 mg SDD (90 mg NTRX-07) QD oral, Day 1, individual subjects
[5] = Table 35 (interim): Cohort D (AD), 360 mg SDD (90 mg NTRX-07) QD oral, Day 7, individual subjects

In the case of `CC1(Cc2ccccc2)COc2cc(C(=O)N3CCCCC3)ccc21` (stereo not drawn) [NTRX-07, 3-benzyl-3-methyl-2,3-dihydrobenzofuran-6-carboxylic acid-piperidine amide], the Cl/F [1] is reported as 497 L/h and 1788 L/h and 599 L/h, the Cmax [1] is reported as 0.186 µg/mL and 0.0424 µg/mL and 0.0379 µg/mL and the Cl/F (Table 25 (interim): Cohort B, 120 mg SDD (30 mg NTRX-07) QD oral, Day 7, mean ± S.D.) is reported as 785 ± 635 L/h. The Cl/F [2] was 221.0 L/h and 420.3 L/h and 389.3 L/h and 548.0 L/h and 208.1 L/h and 184.7 L/h, the Cmax [2] was 0.449 µg/mL and 0.35 µg/mL and 0.337 µg/mL and 0.0924 µg/mL and 0.713 µg/mL and 0.694 µg/mL and the Cl/F (Table 29 (interim): Cohort C, 360 mg SDD (90 mg NTRX-07) QD oral, Day 1, mean ± S.D.) was 329 ± 146 L/h. The Cl/F [3] was 459.9 L/h and 596.3 L/h and 1017.7 L/h and 697.8 L/h and 410.9 L/h and 266.9 L/h, the Cmax [3] was 0.167 µg/mL and 0.23 µg/mL and 0.155 µg/mL and 0.114 µg/mL and 0.105 µg/mL and 0.361 µg/mL and the Cl/F (Table 30 (interim): Cohort C, 360 mg SDD (90 mg NTRX-07) QD oral, Day 7, mean ± S.D.) was 575 ± 263 L/h. The Cl/F [4] was 358.6 L/h and 286.8 L/h and 132.0 L/h and 266.9 L/h and 227.8 L/h and 253.3 L/h, the Cmax [4] was 0.234 µg/mL and 0.491 µg/mL and 0.685 µg/mL and 0.435 µg/mL and 0.434 µg/mL and 0.587 µg/mL and the Cl/F (Table 34 (interim): Cohort D (AD), 360 mg SDD (90 mg NTRX-07) QD oral, Day 1, mean ± S.D.) was 254 ± 74 L/h. The Cl/F [5] was 357.3 L/h and 194.2 L/h and 217.1 L/h and 224.5 L/h and 271.1 L/h and 318.6 L/h, the Cmax [5] was 0.25 µg/mL and 0.262 µg/mL and 0.246 µg/mL and 0.176 µg/mL and 0.221 µg/mL and the Cl/F (Table 35 (interim): Cohort D (AD), 360 mg SDD (90 mg NTRX-07) QD oral, Day 7, mean ± S.D.) was 245 ± 50 L/h.
